# Among all 330,000 compounds or so, about 7,700 (2.3%) were called active. This list was built around the results that the source calls inconclusive (neither active nor inactive); the mix of calls is not that of the screen. Calls come from the whole dose curve; as a rule, active = well fitted inhibition curve with a large enough effect; inconclusive = small, poorly fitted or top-dose-only effect, or effect the other way; inactive = flat fitted curve, though single readings scatter. Where the call is inconclusive, the potency comes from a doubtful curve fit.
# Assay: qHTS screen for small molecules that inhibit ELG1-dependent DNA repair in human embryonic kidney (HEK293T) cells expressing luciferase-tagged ELG1; note: nearly all actives have a fitted effect of over 55% in size
# Conditions: HEK293T ELG1-luciferase reporter, luminescence, 16 h, DNA damage induced by 5-fluorouridine; activity change, negative = inhibition: at 46.1 µM (top of the series)
# Method in brief: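 Step one: seed 2,000 cells per well. Step two: pin-transfer compound or DMSO alongside 5-fluorouridine. Step three: incubate 16 hr, 37 °C, 5% CO2. Step four: add ONE-Glo, wait 30 min, read luminescence.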
# % is set by controls: 0 for no effect and ±100 for the full control effect; potency is the fitted concentration of half-maximal effect.
Structure (SMILES),Potency,"activity change, negative = inhibition"
CC(C)Sc1nsc2nc(=O)c(/C=C3\C=Nc4ccccc43)c(N)n12,inactive,–
CN(C)S(=O)(=O)c1ccc(NC(=O)Cn2ccsc2=N)cc1,inactive,–
COc1ccc(NC(=S)NC(NC(=O)c2ccc(Cl)cc2Cl)C(Cl)(Cl)Cl)c([N+](=O)[O-])c1 (centres undefined),inactive,–
COc1cc(OC)c(N(C)S(=O)(=O)c2cccc(C(=O)OCC(=O)c3c[nH]c4ccccc34)c2)cc1Cl,active: 20.6 µM,–
CCC(C)NC(=O)NC(=O)N(C1CCCCC1)S(C)(=O)=O (centres undefined),"inconclusive: 0.355 µM [activator, full curve, poor fit]",–
CCc1nn2c(=O)c(S(=O)(=O)Nc3ccc(Cl)cc3)c(C)nc2s1,inactive,–
CCOC(=O)C1=C(CS(=O)(=O)c2ccccc2)NC(=O)NC1c1cc(OC)c(O)c(OC)c1 (centres undefined),inactive,–
O=C(Nc1ccc2nc(-c3ccc(Br)o3)[nH]c2c1)c1cccs1,inactive,–
CCCCN(CCCC)c1ncnc2nc[nH]c12,"inconclusive: 20.6 µM [inhibitor, partial curve]",–
CC(C)(C)C(=O)Cn1ncc(N2CCCC2)c(Br)c1=O,"inconclusive: 23.1 µM [activator, partial curve]",–
CCOC(=O)c1c(CN2CCOCC2)n(C)c2cc(Br)c(O)c(CN(C)C)c12,"inconclusive: 0.58 µM [inhibitor, single point]",–
Cc1ccccc1-n1c(SCC(=O)c2c(N)n(C3CC3)c(=O)[nH]c2=O)nnc1N1CCOCC1,inactive,–
Cc1nn(-c2ccccc2)c(C)c1-c1cc(C(=O)N/N=C/c2ccc(O)cc2)[nH]n1,"inconclusive: 11.6 µM [inhibitor, partial curve]",–
Cc1cc(-c2ccc(C(C)C)c(S(=O)(=O)N3CCN(c4ccccn4)CC3)c2)on1,active: 16.4 µM,–
O=Cc1ccc(C(=O)O)cc1,inactive,–
O=C(Nc1ccccc1)OCCOc1ccccc1,"inconclusive: 9.2 µM [activator, partial curve]",–
COc1cc([N+](=O)[O-])cc(/C=N\NC(=O)C2COc3ccccc3O2)c1O (centres undefined),inactive,–
CCCCCCn1c(N2CCCC2)nc2c1c(=O)n(C)c(=O)n2C,"inconclusive: 14.1 µM [inhibitor, single point]",–
COc1ccc(OC)c(NC(=O)CCNS(=O)(=O)c2cc(Br)cnc2N)c1,inactive,–
O=C(Nc1ccccn1)c1ccc2c(c1)OCO2,"inconclusive: 7.3 µM [activator, partial curve]",–
COc1ccc(-c2cn(CC3CCCCC3)nn2)cc1,"inconclusive: 9.2 µM [activator, partial curve]",–
CC(C)c1ccc(COc2ccc(C(=O)N3CCOCC3)cc2)cc1,"inconclusive: 29.1 µM [inhibitor, single point]",–
Cc1cc2cc(CNS(=O)(=O)c3ccc4ccccc4c3)ccc2n1C,inactive,–

# One compound at a time, from the list above. Values in the order: Potency	activity change, negative = inhibition
# Cc1cc(-c2ccc(C(C)C)c(S(=O)(=O)N3CCN(c4ccccn4)CC3)c2)on1 as listed: active: 16.4 µM	–
# O=Cc1ccc(C(=O)O)cc1 as listed: inactive	–
# O=C(Nc1ccccn1)c1ccc2c(c1)OCO2 as listed: inconclusive: 7.3 µM [activator, partial curve]	–
# COc1ccc(NC(=S)NC(NC(=O)c2ccc(Cl)cc2Cl)C(Cl)(Cl)Cl)c([N+](=O)[O-])c1 (centres undefined) as listed: inactive	–

# Remaining list, next part:

Structure (SMILES),Potency,"activity change, negative = inhibition"
O=C(COC(=O)c1ccc[nH]c1=O)NC1CC1,inactive,–
COc1cccc(CNc2ccc3[nH]c(=O)[nH]c3c2)c1OCc1ccccc1,"inconclusive: 18.3 µM [inhibitor, partial curve, poor fit]",–
Cn1c(CO)cnc1SCc1ccc(Cl)cc1,"inconclusive: 23.1 µM [activator, partial curve, poor fit]",–
CCOC(=O)c1ccc(NC(=O)c2ccccc2N(C)S(=O)(=O)c2ccccc2)cc1,"inconclusive: 18.4 µM [inhibitor, single point]",–
Cc1cc(C)c(C(=O)c2ccc(C(=O)N(C(C)C)C(C)C)cc2)c(C)c1,"inconclusive: 13 µM [inhibitor, partial curve, poor fit]",–
Cc1cccc(-n2ncc3c2CCCC3NC(=O)C2=CC(=O)CC(C)(C)O2)c1C (centres undefined),"inconclusive: 9.2 µM [inhibitor, partial curve, poor fit]",–
CN1CC(COCc2ccccc2)Oc2ccccc2S1(=O)=O (centres undefined),inactive,–
COc1ccc(Cl)cc1C(=O)NNC(=O)CNC(=O)c1ccco1,inactive,–
C/C(=N\NC(=O)COc1cc(C)cc(C)c1)c1ccc(N2CCOCC2)cc1,"inconclusive: 29.1 µM [inhibitor, single point]",–
C#CCNC(=O)C1CCN(c2ccc(S(=O)(=O)N3CCOCC3)cc2Cl)CC1,"inconclusive: 29.1 µM [inhibitor, single point]",–
Cc1nc(C/C(=N\Nc2ccccc2)c2ccc(O)cc2O)cs1,"inconclusive: 23.1 µM [activator, partial curve, poor fit]",–
Fc1ccc(-c2nnn(Cc3ccccc3Cl)n2)cc1,"inconclusive: 23.1 µM [activator, single point]",–
CCOC(=O)N1CCN(C(=O)c2c[nH]c3ccc(S(=O)(=O)N(C)c4cccc(C)c4)cc3c2=O)CC1,"inconclusive: 20.6 µM [activator, partial curve, poor fit]",–
COC(=O)c1c(C)oc(C)c1S(=O)(=O)N(Cc1ccccc1)C(C)C,inactive,–
Cc1nnc(SCC(=O)Nc2ncc(S(=O)(=O)c3ccc([N+](=O)[O-])cc3)s2)s1,"inconclusive: 29.1 µM [activator, single point]",–
Cc1nc(CSc2ccc(Cl)cc2)cs1,"inconclusive: 20.6 µM [activator, single point]",–
O=C(Nc1cccc(F)c1)c1ccc(Br)o1,"inconclusive: 20.6 µM [activator, partial curve, poor fit]",–
Cc1ccccc1Nc1nc(N)nc(COC(=O)c2cccc(S(=O)(=O)NCc3ccccc3)c2)n1,"inconclusive: 20.6 µM [inhibitor, single point]",–
COC(=O)c1cnc2c(C(F)(F)F)cccc2c1OC,"inconclusive: 20.6 µM [activator, partial curve, poor fit]",–
CCc1nccn1CCC(=O)N1CCCC(Nc2ccc(C(C)C)cc2)C1 (centres undefined),inactive,–
CCCn1c(=N)c(C(=O)NCC2CCCO2)cc2c(=O)n3cccc(C)c3nc21 (centres undefined),inactive,–
Cc1cc(C)c(NN=c2c(=O)c3ccccc3c2=O)c(C)c1,"inconclusive: 18.4 µM [activator, partial curve]",–
CCOc1ccccc1-c1cc(C(=O)N/N=C(\C)c2cccnc2)c2ccccc2n1,inactive,–

Structure (SMILES),Potency,"activity change, negative = inhibition"
COc1cc2c(cc1OC)C(=O)N1[C@H]3c4cc(C)ccc4OC[C@@H]3[C@H](c3ccccc3)[C@]1(C)C(=O)N2,"inconclusive: 23.1 µM [inhibitor, single point]",–
COc1ccccc1/C=C1\SC(=S)N(CCC(=O)Nc2cccc(O)c2)C1=O,"inconclusive: 23.1 µM [inhibitor, partial curve, poor fit]",–
C[C@@H](C(=O)NCCc1c[nH]c2ccccc12)[C@H]1C[C@]1(C)[C@H](NC(=O)OCc1ccccc1)c1ccccc1,active: 18.4 µM,–
CCN1CCN(c2ccc(S(=O)(=O)N3CCCCC3)cc2NC(=O)c2ccc([N+](=O)[O-])s2)CC1,"inconclusive: 29.1 µM [inhibitor, single point]",–
CC(NC(=O)CSc1nnc(-c2cccnc2)n1N)c1ccccc1 (centres undefined),inactive,–
Cc1ccc(S(=O)(=O)N2CCCCCC2)cc1[N+](=O)[O-],inactive,–
Cc1nnnn1/C(=C\c1ccccc1)C(=O)OCC(=O)Nc1cccc(S(=O)(=O)N(C)C)c1,"inconclusive: 18.3 µM [inhibitor, partial curve, poor fit]",–
CC(=O)N(C)c1ccc(NC(=O)Nc2ccc(C)cc2)cc1,"inconclusive: 20.6 µM [activator, partial curve]",–
CCOC(=O)C1=C(C)N(C)C(C)=C(C(=O)OCC)C1c1cccnc1,"inconclusive: 16.4 µM [inhibitor, partial curve]",–
COc1ccc(-c2sc(Nc3ccc(F)c(F)c3F)nc2CCC(=O)NN)cc1,"inconclusive: 32.6 µM [inhibitor, single point]",–
CSc1ccccc1OCc1cc(C(=O)NC(C)Cn2cncn2)no1 (centres undefined),"inconclusive: 16.4 µM [activator, partial curve]",–
Cc1ccc(OCCCCn2ccnc2)c(Cl)c1,"inconclusive: 25.9 µM [activator, single point]",–
CCOC(=O)c1c(C)[nH]c(C)c1C(=O)COC(=O)c1cc(OC)cc(OC)c1,"inconclusive: 18.3 µM [inhibitor, single point]",–
CCCc1cc(=O)oc2cc(OCC(=O)N3C[C@H]4C[C@@H](C3)c3cccc(=O)n3C4)c(Cl)cc12,"inconclusive: 1.16 µM [activator, single point]",–
COc1ccccc1CN1C(=O)c2cccc3cccc(c23)C1=O,inactive,–
CN(C)CCCNC(=S)Nc1ccc(Oc2ccccc2)cc1,–,inconclusive: 49.2% [activator]
O=C1CCN(S(=O)(=O)c2ccccc2)CCN1CCOCc1ccc(Cl)cc1,inactive,–
CCN(C(=O)CN1C(=O)S/C(=C\c2ccc(F)cc2)C1=O)C1CCS(=O)(=O)C1 (centres undefined),"inconclusive: 20.6 µM [activator, partial curve, poor fit]",–
COc1ccc(N2CCN(c3ncccn3)CC2)cc1,"inconclusive: 8.2 µM [activator, partial curve]",–
Cc1ccc(S(=O)(=O)N(C)CC(=O)OCC(=O)NC(=O)Nc2ccc3c(c2)OCCO3)cc1,"inconclusive: 20.6 µM [activator, partial curve]",–
Nc1cnc(-c2ccccc2)nc1Cl,"inconclusive: 18.4 µM [activator, partial curve]",–
COc1ccccc1N1C(=O)S/C(=C\c2ccc(C)s2)C1=O,"inconclusive: 10.3 µM [activator, partial curve]",–
Cc1nc(CN(C)C(=O)c2cc(COc3c(F)cccc3F)on2)cs1,inactive,–
